# Measurements taken from PubChem BioAssay AID2685 (National Center for Advancing Translational Sciences (NCATS), 2010).
# Some of the results follow. These are further read-outs of the screen, such as a control signal, another cell line or another target. No call is given for them. Most of these compounds were active or inconclusive in the main read-out, so they are no random draw. Words in brackets tell the shape of the fitted curve; partial curves, single points and poor fits give uncertain potencies.
# Assay: qHTS Assay for Lipid Storage Modulators in Drosophila S3 Cells;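 on cell number change: cells counted by Cell Tracker Red CMTPX staining in the red channel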
# Details: BODIPY lipid droplet fluorescence, 18-24 h; for cell number change: measured here: cell count max response, cells fed with added oleic acid
# Method in brief: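 Drosophila S3 cells got compounds at several concentrations plus oleic acid (400 uM solution). Laser-scanning cytometry with 488 nm excitation read lipid droplets at 500-530 nm and cells at 575-640 nm. Percent activity was relative to 20 uM Triacsin C.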
# [1] = measured here: lipid fluorescence (Fed channel) AC50, cells fed with added oleic acid
# [2] = measured here: cell number channel AC50, cells fed with added oleic acid
Structure (SMILES),cell number change,AC50 [1],AC50 [2]
COc1ccc(-c2nn(-c3ccccc3)cc2C(=O)NC2CC2)cc1,-9.09%,"36.6 µM [rising, partial curve, poor fit]",–
CCOc1ccc2c(C)c(Cl)c(=O)oc2c1,97.9%,–,"13 µM [rising, partial curve]"
O=C(CSc1ncnc2c1cnn2-c1ccccc1Cl)N1CCN(C(=O)c2ccco2)CC1,-12.6%,–,–
CCOc1cc(C(=S)N2CCOCC2)ccc1OC(=O)/C=C/c1ccc(OC)c(OC)c1,-14.9%,"0.146 µM [rising, partial curve]",–
Cc1cc(C)c(S(=O)(=O)c2cccc(Cl)c2)c(=O)[nH]1,-5.01%,"0.82 µM [falling, full curve, poor fit]",–
O=C(c1cccn2c(=O)c3cc(Cl)ccc3nc12)N1CCN(Cc2ccc3c(c2)OCO3)CC1,–,"6.51 µM [rising, single point]",–
COc1cc(NC(=O)C2CCCCN2)ccc1OCC(C)C (stereo not drawn),-39.9%,"0.0651 µM [falling, full curve, poor fit]","0.058 µM [falling, full curve, poor fit]"
O=C(Cn1ccc([N+](=O)[O-])n1)c1ccccc1,17.7%,"20.6 µM [rising, partial curve]",–
CCc1cccc(C)c1NC(=O)CCCSc1nc2ccccc2s1,14.4%,"16.4 µM [rising, single point]",–
CN1CCN(NC(=O)c2ccc(Cl)c(S(=O)(=O)Nc3ccc(Cl)cc3)c2)CC1,-29%,"2.59 µM [falling, full curve, poor fit]","3.26 µM [falling, full curve, poor fit]"
CCN1C(=O)[C@H]2[C@@H](c3ccc(Cl)cc3)N3C(=O)CN(CC4CC4)C(=O)[C@@]3(C)[C@H]2C1=O,–,"29.1 µM [rising, single point]",–
O=C(Nc1nnc(SCc2ccc(F)cc2)s1)c1ccc2ncsc2c1,45.8%,"10.3 µM [rising, partial curve]","8.2 µM [rising, partial curve]"
CC(C)(C)c1ccc(-c2nnc(SCC(=O)O)n2N)cc1,-6.33%,"0.731 µM [falling, full curve, poor fit]","0.517 µM [falling, single point]"
CCOc1ccc(N(CC(=O)NC2CCCC2)S(=O)(=O)c2c(C)[nH]c(=O)[nH]c2=O)cc1,-26.7%,"0.259 µM [falling, full curve, poor fit]","0.0517 µM [falling, full curve, poor fit]"
COc1ccc(C(=O)Nc2ccc(OCC(F)(F)C(F)F)c(C(F)(F)F)c2)cc1OC,18.8%,–,"0.00411 µM [rising, full curve, poor fit]"
CCCC(=O)c1cc(F)c(N2CCN(CCC#N)CC2)cc1C,-17.1%,"5.8 µM [rising, partial curve]",–
Cc1cccc2sc(N(CCCN(C)C)C(=O)c3ccco3)nc12,-15.8%,"0.82 µM [falling, single point]",–
COc1ccc(S(=O)(=O)NC(C)C(=O)NC2CC2)cc1C (stereo not drawn),-1.16%,"23.1 µM [rising, single point]",–
COC(=O)[C@@]1(Cc2ccc(F)cc2)[C@H]2c3cc(C(=O)N4CCCC4)n(CCc4ccc(O)c(O)c4)c3C[C@H]2CN1C(=O)c1ccccc1,-32.8%,"16.4 µM [falling, single point]","29.1 µM [falling, single point]"
Cc1cc(C)cc(OCC(=O)Nc2ccc(N3CCCCC3)cc2)c1,36.5%,"23.1 µM [rising, single point]","13 µM [rising, single point]"

# Looked up above:
# Entry for `Cc1cc(C)c(S(=O)(=O)c2cccc(Cl)c2)c(=O)[nH]1` under AC50 [1]: 0.82 µM [falling, full curve, poor fit]
# Entry for `CCOc1cc(C(=S)N2CCOCC2)ccc1OC(=O)/C=C/c1ccc(OC)c(OC)c1` under AC50 [1]: 0.146 µM [rising, partial curve]

# Continuation.

Structure (SMILES),cell number change,AC50 [1],AC50 [2]
COc1ccc(C(=O)COC(=O)/C=C/c2ccc(S(=O)(=O)Nc3cccc(S(N)(=O)=O)c3)cc2)cc1,-27.4%,"7.31 µM [falling, partial curve]",–
O=CN1Cc2[nH]c3ccccc3c2N(c2ccc(Cl)cc2)C1=O,-30.3%,"20.6 µM [falling, partial curve]","0.00411 µM [falling, full curve, poor fit]"
COc1ccccc1C(CNC(=O)C1COc2ccccc2O1)N1CCCC1 (stereo not drawn),-13.2%,"8.2 µM [falling, partial curve]",–
Cn1c(CNC(=O)c2ccccc2F)nnc1SCC(=O)Nc1nnc(C2CC2)s1,-8.97%,–,–
COc1cccc(OC)c1NC(=O)CN(C)S(=O)(=O)c1ccc2c(c1)OCCO2,6.3%,"6.51 µM [falling, single point]",–
CC(=O)Nc1ccc(NC(=O)C(c2ccccc2)c2ccccc2)cc1,28.3%,"29.1 µM [falling, single point]",–
Cc1ccc(S(=O)(=O)N2CCCCCC2)cc1C(=O)NCc1ccccn1,10%,–,–
Cc1cccc(C)c1OCC(=O)OCC(=O)c1ccc2c(c1)NC(=O)CO2,14.3%,–,–
O=C(CSc1nnc(Cc2ccccc2)n1C1CCCCC1)N1CCOCC1,–,–,"6.51 µM [falling, single point]"
Cc1cc(C(=O)CN2C(=O)C(=O)N(Cc3ccco3)C2=O)c(C)n1CCc1ccccc1,-17.7%,"1.46 µM [falling, full curve]",–
COc1ccnc2c1c(=O)n(Cc1ccccc1Cl)c(=O)n2C,3.06%,"5.17 µM [falling, full curve, poor fit]",–
COc1ccc(CN2CCC(Oc3ccc(C(=O)N4CCCC4)cc3)CC2)c(F)c1,7.03%,–,–
Cc1noc(C)c1CSc1ncnc2sc(C)c(C)c12,7.91%,–,"0.411 µM [rising, partial curve]"
N=c1c(C(=O)NCCc2ccccc2)cc2c(=O)n3ccccc3nc2n1CC1CCCO1 (stereo not drawn),-4.96%,"6.51 µM [rising, single point]",–
O=C(NCCCNC(=O)c1ccccn1)c1ccc(F)cc1,1.32%,–,–
COc1ccc(CNC(=O)c2cc3c(=O)n4ccccc4nc3n(CC3CCCO3)c2=N)cc1 (stereo not drawn),-0.357%,"0.184 µM [rising, full curve, poor fit]",–
COc1cc(NC(=O)Cc2cccc3ccccc23)c(C(=O)O)cc1OC,30.2%,"3.66 µM [rising, full curve]","11.6 µM [rising, partial curve, poor fit]"
CN(C)c1cc2c(cc1NS(=O)(=O)c1ccccc1)n(C)c(=O)n2C,-4.76%,–,–
O=C(CN1CCCC1)Nc1cc(C(F)(F)F)cc(C(F)(F)F)c1,11.1%,"0.092 µM [falling, full curve, poor fit]",–
CN1/C(=C\C(=O)Nc2ccc(Cl)cc2)C(C)(C)c2ccccc21,-23.6%,"29.1 µM [falling, single point]",–

Structure (SMILES),cell number change,AC50 [1],AC50 [2]
Cc1cccc(NC(=O)CSCC(=O)Nc2cc(S(=O)(=O)N3CCOCC3)ccc2OC(C)C)c1,-22.5%,–,–
COCCn1c(C)cc(C(=O)CSc2nc(C)cc(C)c2C#N)c1C,-7.8%,"1.46 µM [rising, full curve]",–
O=C(c1ccccc1)C1CCN(C(=O)c2ccco2)CC1,–,"29.1 µM [rising, single point]",–
Cc1ccccc1C(=O)NCCc1nnc(SCC(=O)Nc2nc(-c3ccccc3)cs2)n1C,-47%,"10.3 µM [falling, partial curve]","11.6 µM [falling, partial curve, poor fit]"
Cc1cccc(NC(=O)CNC(=O)c2sc3ccccc3c2Cl)n1,20.9%,"9.2 µM [rising, partial curve]",–
O=S(=O)(NCc1cc(-c2ccccc2)no1)c1ccccc1Cl,-24.4%,–,"3.66 µM [rising, single point]"
C/C(=N\NC(=O)C1COc2ccccc2O1)c1ccc(C)o1 (stereo not drawn),42.2%,–,"29.1 µM [rising, single point]"
CSCCC(NC(=O)c1cccc(S(=O)(=O)N2CCOCC2)c1)c1nc2ccccc2[nH]1 (stereo not drawn),-13%,"29.1 µM [rising, single point]",–
O=C(NCCOC(=O)c1ccccc1)c1ccccc1,16%,–,–
Cc1onc(-c2ccccc2Cl)c1C(=O)N1CCCC1,13.3%,"16.4 µM [rising, single point]",–
CCOCCCNc1nc2c(C)cccn2c(=O)c1/C=C1\SC(=S)N(C(C)CC)C1=O (stereo not drawn),–,"0.366 µM [falling, full curve]",–
C/C(=N\NC(=O)c1nc2ccccn2c1C)c1cccc([N+](=O)[O-])c1,4.05%,"5.17 µM [rising, partial curve, poor fit]","3.66 µM [rising, single point]"
O=S(=O)(NCCc1c[nH]c2ccccc12)c1ccccc1,31.7%,–,"32.6 µM [rising, single point]"
CSc1nc2ccc(Br)cc2[nH]1,-37.3%,"16.4 µM [falling, partial curve, poor fit]","18.4 µM [falling, single point]"
CCc1ccc(N2CC(C(=O)NCC(C)(C)N3CCOCC3)CC2=O)cc1 (stereo not drawn),-8.56%,"0.291 µM [falling, full curve, poor fit]",–
O=C(CSc1nnc(NCc2ccccc2)s1)c1ccco1,7.01%,–,–
CCN1CCN(CC(=O)Nc2cc3c(cc2C(C)=O)OCO3)CC1,-1.2%,"3.26 µM [falling, single point]",–
COc1ccc(C)cc1NC(=O)c1cc(S(=O)(=O)N2CCCCC2)ccc1N1CCOCC1,4.52%,"29.1 µM [falling, single point]",–
